Measurements from US7671009B2 (DSM IP Assets B.V., priority 2001, dated 2010).

What was measured:
[1] = general procedure: Fmoc solid-phase peptide synthesis; H-Ser(tBu)-chlorotrityl resin; TBTU, collidin; conditions: whole synthesis, scale 14.0 mmol, TFA
[2] = general procedure: Fmoc solid-phase peptide synthesis; H-Ser(tBu)-chlorotrityl resin (0.75 mmol/g); TBTU, collidin; conditions: late stage modification step, from 5a, TFA

Substance | isolated mass [1] [g] | isolated yield [1] [%] | step yield [2] [%]
H-Lys(Boc)-Thr(tBu)-Ser(tBu)-Orn(Boc)-Ser(tBu)-OH×TFA | 9.3 | 64 | –
H-Lys-Thr-Ser-Orn-Ser-OH×3TFA | – | – | 76
